Results are given in words; binding and its absence hold for the method and conditions named. In cells and extracts the contact can be indirect. Some results given as binding are weak or reduced against the parent protein; the word gives no strength.
Target: T1, Lectin, mannose-binding 2 (LMAN2) (human (endogenous in BC cells)) (UniProt Q12907)
T1 sequence: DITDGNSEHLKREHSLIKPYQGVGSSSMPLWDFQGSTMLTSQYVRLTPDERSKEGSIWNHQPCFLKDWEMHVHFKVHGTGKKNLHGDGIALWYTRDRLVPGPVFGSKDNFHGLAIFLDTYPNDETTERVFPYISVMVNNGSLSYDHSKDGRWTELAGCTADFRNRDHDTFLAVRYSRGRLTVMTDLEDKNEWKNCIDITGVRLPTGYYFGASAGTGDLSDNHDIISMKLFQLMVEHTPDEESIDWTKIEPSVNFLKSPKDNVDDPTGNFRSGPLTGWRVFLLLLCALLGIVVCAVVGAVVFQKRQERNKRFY
Assay: co-IP; BC cells lysed in NP-40 lysis buffer; supernatant incubated with anti-LMAN2 at 4°C overnight, protein A/G agarose 6 h at 4°C; Western blot; anti-IgG as negative control

## MAPK9 (from UniProt P45984 1-424)
  binding: binds

— publication PMC11609576
